Results published in article PMC10746543, “Design principles for cyclin K molecular glue degraders” (Nature Chemical Biology, 2023).
No constants are given. Whether binding was seen depends on the method and setting. Some entries that bind do so weakly or less than the wild type.

Chains of the proteins cited; added tags and fusions are not shown. Lines headed by an entry give the natural chain unless they say otherwise; changes in a name come on top. A line that says so, or that is headed by a name, gives the form on record, which may keep a tag or linker.
CDK12 (a.a. 713–1,052) (Q9NYV4, form named): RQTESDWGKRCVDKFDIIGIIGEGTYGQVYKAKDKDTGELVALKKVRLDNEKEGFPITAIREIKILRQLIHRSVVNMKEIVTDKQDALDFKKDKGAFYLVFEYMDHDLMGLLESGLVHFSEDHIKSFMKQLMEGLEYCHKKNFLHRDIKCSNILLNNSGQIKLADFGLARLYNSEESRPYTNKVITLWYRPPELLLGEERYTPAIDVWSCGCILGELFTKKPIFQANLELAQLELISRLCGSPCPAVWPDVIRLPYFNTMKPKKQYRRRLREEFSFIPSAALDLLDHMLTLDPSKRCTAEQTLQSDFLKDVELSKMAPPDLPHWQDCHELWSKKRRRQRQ

Biological target: CDK12 (a.a. 713–1,052) (human) (UniProt Q9NYV4)
Experiment: crystal structure; DDB1ΔB (70 µM), CDK12–cyclin K (80 µM) and compound (80–120 µM) in 50 mM HEPES 7.4, 200 mM NaCl, 0.25 mM TCEP; sitting drop, 20 °C; molecular replacement with PDB 6TD3; both purified

B1: cyclin K (a.a. 1–267) (domain or fragment, UniProt O75909 1-267)
chain: MKENKENSSPSVTSANLDHTKPCWYWDKKDLAHTPSQLEGLDPATEARYRREGARFIFDVGTRLGLHYDTLATGIIYFHRFYMFHSFKQFPRYVTGACCLFLAGKVEETPKKCKDIIKTARSLLNDVQFGQFGDDPKEEVMVLERILLQTIKFDLQVEHPYQFLLKYAKQLKGDKNKIQKLVQMAWTFVNDSLCTTLSLQWEPEIIAVAVMYLAGRLCKFEIQEWTSKPMYRRWWEQFVQDVPVDVLEDICHQILDLYSQGKQQMPH
binding: binds
